# Test results as given in PubChem BioAssay AID2685 (National Center for Advancing Translational Sciences (NCATS), 2010).
# The whole screen tested about 320,000 compounds, of which about 2,100 (0.66%) were called active. Inconclusive means that the source gave no clear call. Such entries were picked first, then a sample of the others. Calls follow the shape of the dose curve; as a rule, active = well fitted inhibition curve with a large enough effect in the signal ratio, with a control signal flat (not every such curve was filed as active); inconclusive = small, poorly fitted or top-dose-only effect, or effect the other way, or a change in a side signal; inactive = flat fitted curve, though single readings scatter; the % refers to the signal ratio. Potencies beside an inconclusive call are fits to weak or partial responses and may not hold up.
# Assay: qHTS Assay for Lipid Storage Modulators in Drosophila S3 Cells
# Details: BODIPY lipid droplet fluorescence, 18-24 h, cells fed with added oleic acid; lipid storage change, negative = inhibition: at 46.1 µM (top of the series) unless noted
# In short: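 Drosophila S3 cells loaded with oleic acid (400 uM, as added) and compounds at several concentrations; lipid droplets imaged by 488-nm laser-scanning cytometry, 500–530 nm intensity and object ratio to cell channel. Percent activity normalized to 20 uM Triacsin C.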
# % is scaled to controls: 0 for no effect and ±100 for the full control effect; potency is read from the fitted curve at half-maximal effect.
Compound,"lipid storage change, negative = inhibition",Potency
Cc1cc(Cl)ccc1Oc1ccccc1C(=O)CC#N,inconclusive: 9.11%,
COc1ccc(S(=O)(=O)Nc2nc3n(n2)C(c2ccc(Cl)cc2)CC(=O)N3)cc1 (stereo not given),inconclusive: 4.07%,
Cc1ccc(NC(=O)CSc2nnc(-c3ccccc3Br)o2)cc1C,inconclusive: 32%,
COc1cc(NC(=O)CCN2CCN(Cc3ccccc3)CC2)cc(OC)c1,inconclusive: 16.6%,
CCOc1ccc(S(=O)(=O)N(CC(=O)O)c2ccccc2)cc1,inconclusive: -78%,
O=C(CSc1nnc(-c2ccncc2)n1-c1ccccc1)N1CCN(c2ccc(Cl)cc2)CC1,,"inconclusive: 5.17 µM [activator, single point]"
COC(=O)c1sc(=S)n(-c2cccc(Cl)c2)c1N,inactive,
C=CCC(NCc1ccco1)c1ccc(OC)c(OC)c1 (stereo not given),,active: 23.1 µM
CCCCCOc1ccc(N2C(=O)CC(N(O)c3ccccc3)C2=O)cc1 (stereo not given),inconclusive: -9.82%,
O=C(Nc1ccc(Cl)c(C(F)(F)F)c1)NC1CC2CCCC(C1)N2Cc1ccccc1 (stereo not given),,"inconclusive: 29.1 µM [cytotoxic, single point]"
CC1=C(C(=O)OCCC(C)C)C(c2ccc3c(c2)OCO3)NC(=O)N1 (stereo not given),,"inconclusive: 29.1 µM [falling, single point]"
Cc1ccc(S(=O)(=O)N(C)C)cc1NC(=O)COC(=O)c1c(-c2ccccc2)noc1C,inconclusive: 36.4%,
O=C(Nc1nc(-c2cccs2)cs1)c1ccc([N+](=O)[O-])o1,,active: 2.06 µM
CC(C)CC(=O)Nc1ccc(C(=O)COC(=O)C2=COCCO2)cc1,inconclusive: 30.4%,
Cc1ccc(C(C(=O)NCCc2ccccc2)N(C(=O)c2csnn2)C2CC2)cc1 (stereo not given),inconclusive: -61.9%,
c1ccc(CNc2nc(N3CCN(Cc4ccccc4)CC3)nc3ccccc23)cc1,inconclusive: -58.7%,
Cc1ccc(CN2CC34C=CC(O3)C(C(=O)NCc3ccc5c(c3)OCO5)C4C2=O)cc1 (stereo not given),inconclusive: 7.12%,
O=C(CN1C(=O)NC2(CCCC2)C1=O)Nc1nc2ccccc2[nH]1,,"inconclusive: 29.1 µM [falling, single point]"
COc1cccc(CN(C)C(=O)CSCC(=O)Nc2cc(C)on2)c1OC,inconclusive,
Cc1noc(C)c1C(=O)Nc1cc(S(=O)(=O)N2CCCCC2)ccc1N(C)C,inconclusive,
O=[N+]([O-])c1ccc(P(=O)(Cc2ccccc2)c2ccccc2O)cc1 (stereo not given),,"inconclusive: 10.3 µM [falling, partial curve]"
O=c1oc2ccccc2c2oc3cc(O)c(O)cc3c12,inconclusive: -1.49%,
COc1cccc2c1OCC/C2=N\NC(=O)COc1ccc(C)cc1,inconclusive: -8.5%,
CC(OC(=O)c1ccc(Cl)nc1)C(=O)NCc1ccc2c(c1)OCO2 (stereo not given),,"inconclusive: 2.31 µM [activator, full curve]"
CCCN(CCC)CCCNC(=O)Cn1cnc2sc(C)c(S(=O)(=O)N3CCCCC3)c2c1=O,,"inconclusive: 20.6 µM [activator, single point]"

# Looked up by compound from the entries so far, 3 records:
Compound,"lipid storage change, negative = inhibition",Potency
O=[N+]([O-])c1ccc(P(=O)(Cc2ccccc2)c2ccccc2O)cc1 (stereo not given),,"inconclusive: 10.3 µM [falling, partial curve]"
COC(=O)c1sc(=S)n(-c2cccc(Cl)c2)c1N,inactive,
CCCCCOc1ccc(N2C(=O)CC(N(O)c3ccccc3)C2=O)cc1 (stereo not given),inconclusive: -9.82%,

# (list continues)

Compound,"lipid storage change, negative = inhibition",Potency
COc1ccc(C(=O)/C=C2\Sc3ccccc3N2C)cc1,inconclusive: -16.5%,
CC1(C(=O)NNC(=O)c2cccc([N+](=O)[O-])c2)CC1(Br)Br (stereo not given),,"inconclusive: 25.9 µM [activator, single point]"
CN(C)S(=O)(=O)N1CCN(C(=O)N2CCCCCC2)CC1,inconclusive: -52%,
COc1ccccc1CNc1ccc2c(c1)CCC2,,"inconclusive: 29.1 µM [falling, single point]"
CCOC(=O)C(C)Sc1nnc(Cn2c(=O)sc3ccccc32)n1-c1ccccc1 (stereo not given),inconclusive: 45.2% [activator],
Cc1ccc([N+](=O)[O-])cc1S(=O)(=O)N1CCNCC1,inconclusive: -26.9% [at 9.22 µM],
O=C(Nc1nnc(C2COc3ccccc3O2)o1)c1ccc(F)cc1 (stereo not given),,"inconclusive: 18.4 µM [falling, single point]"
O=C(Nc1cccnc1)Nc1ccccn1,inconclusive: 49.9%,
CSc1ccc(C(=O)C2CCCN(C(=O)c3nonc3C)C2)cc1 (stereo not given),inconclusive: -32.9%,
Cc1cc(C)nc(N2CCCC(C(=O)NC(C)C)C2)n1 (stereo not given),inconclusive: 1.33%,
CCCCNC(=O)CCCCn1c(=S)[nH]c2c([nH]c3ccc(OC)cc32)c1=O,,"inconclusive: 0.082 µM [falling, partial curve, poor fit]"
Cc1csc2c(C#N)c(=O)c3c(n12)CCC3,,"inconclusive: 23.1 µM [activator, single point]"
Cc1ccc(CNC(=O)c2ccc(NS(=O)(=O)c3cccs3)cc2)cc1,,"inconclusive: 29.1 µM [activator, single point]"
CC(C#N)(NC(=O)CN1CCN(S(=O)(=O)c2cc(C(F)(F)F)ccc2Cl)CC1)C1CC1 (stereo not given),inconclusive,
COc1cccc(Oc2ccc(C(F)(F)F)cc2N)c1,inconclusive: -22.9%,
O=C(NCc1cccnc1)c1ccc(Cl)c(S(=O)(=O)Nc2ccccc2C(=O)NCc2cccnc2)c1,inconclusive: -6.7%,
CN(C)S(=O)(=O)n1cnc(C(CCO)c2ncn(S(=O)(=O)N(C)C)c2CCCO)c1 (stereo not given),inconclusive: 10.4%,
COc1ccc(N2C(=O)CC(c3ccccc3)C2=O)cc1 (stereo not given),inconclusive: 2.5%,
Cc1ccc(-c2csc3nc[nH]c(=S)c23)cc1,inconclusive: -5.39%,
S=C(NCc1ccccc1)N1CCCCC1,,"inconclusive: 23.1 µM [rising, single point]"
COc1cc2c(cc1OC)C(/C=C/c1ccco1)=NCC2,inconclusive: 0.834%,
Cc1ccc(S(=O)(=O)NC2=C(N3CCN(c4ccccc4F)CC3)C(=O)c3ccccc3C2=O)cc1,inconclusive: -28.4%,
CCC(=O)Nc1ccc(NC(=O)CSc2nc3cc4c(cc3cc2C)CCC4)cc1,inactive,
COc1cccc(OC)c1C(=O)NC(=S)Nc1ccc2oc(=O)ccc2c1,,"inconclusive: 23.1 µM [falling, partial curve, poor fit]"
Cc1ccc(CNc2cc(-c3nn4c(C)nnc4s3)ccc2C)s1,,"inconclusive: 6.51 µM [activator, single point]"
